Test results taken from patent publication US6552168B1 (Merck Frosst Canada & Co., priority 1998, dated 2003).

assay: general procedure: Fmoc solid-phase peptide synthesis; resin from Example 1, Step 4 (polymer, 0.7 meq/g loading); HATU and DIEA (instead of TBTU and HOBt); conditions: late stage modification step

Compared with “(3S)-3-((2S)-2-[((2S)-2-[(2S)-2-(Acetylamino)-4-methoxy-4-oxobutanoyl]aminopropanoyl)amino]-3-methylbutanoylamino)-4-oxo-7-phenylheptanoic acid”, “(3S)-3-[((2S)-2-[(2S)-2-((2S)-3-Carboxy-2-[(3,5-dideuteriobenzoyl)amino]propanoylamino)propanoyl]amino-3-methylbutanoyl)amino]-4-oxo-7-phenylheptanoic acid” is higher in step yield: 63% for the first, 100% for the second.

same assay, conditions: whole synthesis, scale 290 mg polymer (0.7 meq/g)

First: (3S)-3-((2S)-2-[((2S)-2-[(2S)-2-(Acetylamino)-3-carboxypropanoyl]amino-4-carboxybutanoyl)amino]-3-methylbutanoylamino)-4-oxo-7-phenylheptanoic acid
Second: (3S)-3-((2S)-2-[((2S)-2-[(2S)-2-(Acetylamino)-3-carboxypropanoyl]aminopropanoyl)amino]-3-methylbutanoylamino)-7-(1-naphthyl)-4-oxoheptanoic acid
The crude mass of the first is lower: 58 mg for the first, 83 mg for the second.

First: (3S)-3-((2S)-2-[((2S)-2-[(2S)-2-Amino-4-methoxy-4-oxobutanoyl]aminopropanoyl)amino]-3-methylbutanoylamino)-4-oxo-7-phenylheptanoic acid
Second: (3S)-3-[((2S)-2-[(2S)-2-((2S)-3-Carboxy-2-[(3,5-dibromobenzoyl)amino]propanoylamino)propanoyl]amino-3-methylbutanoyl)amino]-4-oxo-7-phenylheptanoic acid
The crude mass of the first is lower: 71 mg for the first, 83 mg for the second.
